In patent US20240216376A1, “COMBINATION THERAPIES FOR THE TREATMENT OF CANCER” (Duke University, priority 2021, published 2024):
For some assays here: For at least one compound, name, drawing or mass did not settle the structure. Some of these results come from one statement about several compounds together.

Columns and labels:
[1] = tested on: MLL-AF9 syngeneic murine model of AML; assay: MLL-AF9 syngeneic murine model of AML; format: in vivo, mice; settings: selinexor 15 mg/kg and/or ipatasertib 65 mg/kg oral gavage every other day for ten days
AML cell lines = assay: Short-term drug sensitivity assay (GI50), selinexor plus background drug; format: cell-based; settings: panel of AML cell lines, fixed-concentration background drug
Protocol: Short-term cell viability assays were conducted. Briefly, AML cells were seeded at a density of 7,500 cells/well, treated with vehicle (DMSO) or a 10-fold serial dilution of selinexor (individually or combination with fixed-concentration background drug) and assessed for viability after 72-hours using Cell Titer Glo (Promega). The relative cell viability was determined by normalizing the raw luminescence values for each treatment condition to either the DMSO-treated well (selinexor individually) or the background drug only well (selinexor combinations). GI50 values approximate the concentration of selinexor required to inhibit growth of cells by 50%. Values were interpolated from dose-response curves plotted using GraphPad/Prism 8 software.

SMILES: O=C(/C=C\n1cnc(-c2cc(C(F)(F)F)cc(C(F)(F)F)c2)n1)NNc1cnccn1 [selinexor]
- survival longer than vehicle, on average [1]: no more than 10 days

SMILES: CC[C@H](Nc1ncnc2[nH]cnc12)c1nc2cccc(F)c2c(=O)n1-c1ccccc1 [Cal-101]
- sensitization to selinexor (relative selinexor GI50), PI3K isoform-specific inhibitor background (AML cell lines): unable to sensitize any of the cell lines to selinexor
